Reference: ChEMBL document CHEMBL6120973 (J Med Chem, 2024)

Chains of the proteins cited; added tags and fusions are not shown.
UniProt P33261, whole entry: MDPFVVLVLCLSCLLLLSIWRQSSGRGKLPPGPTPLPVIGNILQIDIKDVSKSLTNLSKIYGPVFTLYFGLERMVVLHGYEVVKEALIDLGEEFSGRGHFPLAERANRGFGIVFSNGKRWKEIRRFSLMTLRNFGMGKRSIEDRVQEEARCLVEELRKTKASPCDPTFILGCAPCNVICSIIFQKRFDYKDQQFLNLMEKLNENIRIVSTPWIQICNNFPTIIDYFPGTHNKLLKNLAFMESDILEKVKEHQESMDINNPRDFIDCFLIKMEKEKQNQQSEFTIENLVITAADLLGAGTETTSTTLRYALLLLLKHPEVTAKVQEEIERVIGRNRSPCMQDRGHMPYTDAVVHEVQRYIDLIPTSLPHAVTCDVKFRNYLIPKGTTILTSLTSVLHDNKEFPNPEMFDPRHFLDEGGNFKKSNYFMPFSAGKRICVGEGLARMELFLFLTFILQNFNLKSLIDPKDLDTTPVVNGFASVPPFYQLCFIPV

Molecular target: Cytochrome P450 2C19 (Homo sapiens, UniProt P33261)
Test: Inhibition of CYP2C19 in human liver microsomes preincubated for 10 mins followed by NADPH addition and measured after 15 mins by LC/MS/MS analysis

N#Cc1ccc(Nc2nccc(Nc3c(F)cc(-c4ccncc4)cc3F)n2)cc1
IC50: 6.8 µM
